Measurements reported in patent US20240293579A1, “Composition Comprising Trim31 and Rhbdf2 for Treatment of NAFLD/NASH” (CHONGQING MEIPULAN TECHNOLOGY CO., LTD, priority 2021, published 2024).
Results are given in words; binding and its absence hold for the method and conditions named. Binding seen in cells or lysates may run through a third protein. Where a sequence is shown, tags or fusion partners need not be part of it.

Protein sequences, listed by entry. Tags and fused reporters are not part of them. Lines headed by an entry give the natural chain unless they say otherwise; changes in a name come on top.
UniProt Q8R0K2: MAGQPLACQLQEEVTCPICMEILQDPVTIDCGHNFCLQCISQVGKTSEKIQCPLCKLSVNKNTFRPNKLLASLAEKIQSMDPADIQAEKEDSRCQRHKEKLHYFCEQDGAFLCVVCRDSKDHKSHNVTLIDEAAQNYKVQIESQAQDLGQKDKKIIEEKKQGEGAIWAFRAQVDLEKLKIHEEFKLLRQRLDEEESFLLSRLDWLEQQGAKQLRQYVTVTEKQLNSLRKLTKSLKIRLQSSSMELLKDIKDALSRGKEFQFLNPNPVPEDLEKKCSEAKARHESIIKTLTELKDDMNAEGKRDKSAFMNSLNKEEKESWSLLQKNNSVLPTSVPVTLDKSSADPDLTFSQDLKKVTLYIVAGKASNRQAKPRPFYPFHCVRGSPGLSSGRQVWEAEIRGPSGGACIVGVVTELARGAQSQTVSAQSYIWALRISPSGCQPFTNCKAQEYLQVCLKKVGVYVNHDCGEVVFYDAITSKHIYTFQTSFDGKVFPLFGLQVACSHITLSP

Biological target: T1, mouse Rhbdf2, full-length, HA-tagged (mouse) (UniProt Q80WQ6)
T1 sequence (looked up): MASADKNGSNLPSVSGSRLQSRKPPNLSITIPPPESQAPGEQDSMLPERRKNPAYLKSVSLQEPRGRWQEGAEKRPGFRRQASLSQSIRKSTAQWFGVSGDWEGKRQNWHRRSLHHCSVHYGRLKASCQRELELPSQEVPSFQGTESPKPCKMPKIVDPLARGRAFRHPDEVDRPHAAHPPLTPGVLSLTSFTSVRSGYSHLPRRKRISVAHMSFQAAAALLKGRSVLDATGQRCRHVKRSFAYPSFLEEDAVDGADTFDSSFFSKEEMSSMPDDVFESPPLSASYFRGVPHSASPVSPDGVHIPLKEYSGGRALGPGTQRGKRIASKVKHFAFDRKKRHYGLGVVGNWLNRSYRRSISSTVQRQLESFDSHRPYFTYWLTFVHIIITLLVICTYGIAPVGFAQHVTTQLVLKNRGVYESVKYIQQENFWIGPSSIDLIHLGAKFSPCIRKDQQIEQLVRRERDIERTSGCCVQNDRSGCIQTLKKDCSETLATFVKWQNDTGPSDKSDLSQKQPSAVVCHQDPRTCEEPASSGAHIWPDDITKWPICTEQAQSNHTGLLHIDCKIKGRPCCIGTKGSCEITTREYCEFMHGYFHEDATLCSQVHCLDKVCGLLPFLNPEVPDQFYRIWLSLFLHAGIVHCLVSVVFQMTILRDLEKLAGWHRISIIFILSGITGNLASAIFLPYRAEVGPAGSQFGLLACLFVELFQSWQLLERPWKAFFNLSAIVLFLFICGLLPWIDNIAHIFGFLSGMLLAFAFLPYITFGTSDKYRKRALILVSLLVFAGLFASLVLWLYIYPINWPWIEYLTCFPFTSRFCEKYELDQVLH
Test: co-immunoprecipitation in transfected mouse hepatocytes

In the case of “mouse Trim31 CC domain deletion mutant, Flag-tagged (Trim31-Flag CC^Δ) (from UniProt Q8R0K2) (enzyme)”, the binding is reported as “no binding”.
